PubChem BioAssay AID504648 (National Center for Advancing Translational Sciences (NCATS), 2011)
Out of some 390,000 compounds screened, about 610 (0.16%) were called active. This list was built around the results that the source calls inconclusive (neither active nor inactive); the mix of calls is not that of the screen. The call rests on the fitted dose curve; in most records, active means well fitted inhibition curve with a large enough effect; inconclusive means small, poorly fitted or top-dose-only effect, or effect the other way, or another doubt; inactive means no such curve, though single readings can be large or run the other way. Potencies beside an inconclusive call are fits to weak or partial responses and may not hold up.
Potency means the concentration at half of the fitted maximal effect.

Assay: Nrf2 qHTS screen for inhibitors: counterscreen for cytotoxicity
Details: A549 ARE-Fluc cells, CellTiter-Fluor viability, 18-24 h; series mostly up to 46 µM
Procedure, shortened: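 A549 ARE_Fluc cells in 5% FBS OPTI-MEM were exposed to compounds in concentration-response for 18-24 h at 37 deg C. Viability was read by CellTiter-Fluor fluorescence (Ex 405/Em 525) after 30 min, before the luciferase read.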
In the case of O=C(C(=O)c1ccc(O)cc1)c1ccccc1, the Potency is reported as “inactive”.
In the case of CC12CCC=CC1C(c1ccc3ccccc3c1)N(Cc1ccccc1)C2=O (stereo unspecified), the Potency is reported as inconclusive: 32.6 µM [falling, partial curve, poor fit].
In the case of CCOc1ccccc1C(=O)Nc1cc(OC)ccc1OC, the Potency is reported as inconclusive: 20.6 µM [falling, partial curve, poor fit].
For OC(CSc1c(Cl)cccc1Cl)CN1CCN(c2ccc(F)cc2)CC1 (stereo unspecified), the Potency was inconclusive: 23.1 µM [falling, single point].
In the case of CCNC(=S)N/N=C/c1ccc(OCCOc2ccccc2C)cc1, the Potency is reported as inconclusive: 5.8 µM [falling, partial curve, poor fit].
For O=C(CSCc1ccc(F)cc1)N1CCc2c([nH]c3ccccc23)C1c1ccc(F)cc1 (stereo unspecified), the Potency was inconclusive: 18.4 µM [falling, single point].
With CCOc1ccc(C(=O)N(CN2CCCC2=O)c2ccc(C)cc2)cc1 the Potency was inconclusive: 29.1 µM [falling, single point].
With COc1nc(Nc2ccccc2)nc(OC)n1 the Potency was “inactive”.
In the case of COc1ccc(S(=O)(=O)Nc2ccc(Oc3ncccn3)c(Cl)c2)cc1, the Potency is reported as “inactive”.
For COc1ccc(C(=O)Nc2ccccc2-c2nnn(CC(N)=O)n2)cc1, the Potency was inconclusive: 0.651 µM [falling, partial curve].
With O=C1N[C@@H](Cc2c[nH]c3ccccc23)COC(=O)[C@@H](Cc2ccc(F)cc2)CC/C=C/C[C@@H]1CC(=O)N(CCO)Cc1ccccc1 the Potency was inconclusive: 23.1 µM [falling, partial curve, poor fit].
For Cc1ncc(C[n+]2csc(CCO)c2C)c(N)n1, the Potency was inconclusive: 23.1 µM [falling, partial curve].
For COc1ccc(S(=O)(=O)Nc2ccccc2C(=O)Nc2nc(-c3ccc(F)cc3)cs2)cc1OC, the Potency was inconclusive: 16.4 µM [falling, single point].
For COc1ccc(N=c2nc(-c3ccc(C)cc3)n(-c3ccccc3)s2)cc1, the Potency was inconclusive: 20.6 µM [falling, partial curve, poor fit].
In the case of CCOc1ccccc1NC(=O)Cn1cnc2c1c(=O)n(C)c(=O)n2C, the Potency is reported as “inactive”.
With CCOc1ccc2c(c1)-c1c(ssc1=S)C(C)(C)N2C the Potency was inconclusive: 25.9 µM [falling, partial curve, poor fit].
For Oc1cc2c(cc1O)[C@H]1c3ccc(O)c(O)c3OC[C@@]1(O)C2, the Potency was inconclusive: 23.1 µM [falling, single point].
With O=C(NC(=S)Nc1ccc2c(c1)OCCO2)c1ccccc1F the Potency was “inactive”.
With CS(=O)(=O)c1nc(-c2ccc(F)cc2)cc(C(F)(F)F)n1 the Potency was inconclusive: 18.4 µM [falling, single point].
In the case of CCCOc1ccc(N2C(=O)CC(SC(=NCC)Nc3cccc(F)c3)C2=O)cc1 (stereo unspecified), the Potency is reported as inconclusive: 4.61 µM [falling, single point].
In the case of COCCCNC(=O)c1c(N)n(-c2cccc(S(N)(=O)=O)c2)c2nc3ccccc3nc12, the Potency is reported as inconclusive: 23.1 µM [activator, single point].
With O=C(NCCN1CCOCC1)c1ccccc1N1C(=O)[C@@H]2Cc3c([nH]c4ccccc34)C(c3ccc(F)cc3)N2C1=O (stereo partly specified) the Potency was “inactive”.
With COc1ccc(NC(=S)N(CCc2c(C)[nH]c3ccc(C)cc23)Cc2cccnc2)cc1 the Potency was inconclusive: 16.4 µM [falling, single point].
For Cc1onc(-c2ccccc2)c1C(=O)N/N=C/c1c(F)cccc1Cl, the Potency was inconclusive: 10.3 µM [activator, partial curve, poor fit].
With Cc1oc2ccc(O)c(CN3CCN(Cc4ccccc4)CC3)c2c1C(=O)Nc1ccccc1 the Potency was “inactive”.
For CCC1(C)Cc2c(sc3[nH]c(=S)n(Cc4ccccc4)c(=O)c23)CO1 (stereo unspecified), the Potency was inconclusive: 18.4 µM [falling, partial curve, poor fit].
For OC1(c2ccccc2)CC(c2ccccc2)c2ccccc2O1 (stereo unspecified), the Potency was “inactive”.
In the case of COc1ccc(C2=NCC(CSc3nnc(-c4ccc5c(c4)OCO5)o3)S2)cc1 (stereo unspecified), the Potency is reported as inconclusive: 16.4 µM [falling, partial curve, poor fit].
For COc1ccc(NS(=O)(=O)c2cc(NC(=O)c3sccc3C)ccc2N2CCOCC2)cc1, the Potency was inconclusive: 20.6 µM [falling, partial curve, poor fit].
With COc1cc(C(CC(=O)Nc2ccc(Br)cn2)N2Cc3ccccc3C2=O)cc(OC)c1OC (stereo unspecified) the Potency was “inactive”.
With CCOc1ccc(C(=S)NC2CCCCC2)cc1OCC the Potency was “inactive”.
In the case of CCSc1nc2ccccc2n1C(=O)/C=C/c1ccc(OC)c(OC)c1, the Potency is reported as inconclusive: 18.4 µM [falling, single point].
For Cc1ccc(C(=O)OCC(=O)NCC2COc3ccccc3O2)cc1 (stereo unspecified), the Potency was inconclusive: 29.1 µM [activator, single point].
In the case of CCN(CC)c1ccc(NC(=O)CCS(=O)(=O)c2cc3c(cc2Cl)NC(=O)CO3)c(C)c1, the Potency is reported as inconclusive: 29.1 µM [falling, single point].
For O=[N+]([O-])c1ccccc1NCc1c(O)ccc2ccccc12, the Potency was “inactive”.
For CN(CC(=O)Nc1cccc(S(=O)(=O)N2CCOCC2)c1)CC(=O)Nc1ccc(Cl)c(C(F)(F)F)c1, the Potency was inconclusive: 18.4 µM [falling, partial curve].
For O=C(CSc1nc2ccccc2o1)Nc1cc(C(F)(F)F)ccc1N1CCOCC1, the Potency was “inactive”.
For Nc1cc2nc3ccccc3oc-2cc1=O, the Potency was inconclusive: 29.1 µM [falling, single point].
With Cc1ccnc(NC(=O)CCc2c[nH]c3ccccc23)c1 the Potency was “inactive”.
With Cc1ccc(NC(=O)Cn2c(O)c(N=NC(N)=S)c3ccccc32)cc1 the Potency was inconclusive: 23.1 µM [falling, partial curve, poor fit].
For C1=C(c2ccc(-c3ccccc3)cc2)Nc2ncnn2C1c1ccco1 (stereo unspecified), the Potency was inconclusive: 16.4 µM [activator, partial curve, poor fit].
For Cc1ccc(-c2nc(CSc3nc4ccccc4c(=O)n3C)cs2)cc1, the Potency was inconclusive: 6.51 µM [activator, partial curve, poor fit].
In the case of CN(c1ncc(C(F)(F)F)cc1Cl)N1C(=O)c2cccc([N+](=O)[O-])c2C1=O, the Potency is reported as “inactive”.
For CC(C)COc1ccc(C(=O)NCC2(N3CCN(C)CC3)CCCCC2)cc1, the Potency was “inactive”.
In the case of O=C(NC12CC3CC(CC(C3)C1)C2)c1ccc(N2CCNCC2)c([N+](=O)[O-])c1, the Potency is reported as “inactive”.
In the case of O=C(Nc1ccc2nc(SCC(=O)N3CCOCC3)sc2c1)c1cccc(Cl)c1, the Potency is reported as inconclusive: 32.6 µM [falling, partial curve, poor fit].
For Cc1nnc(SCC(=O)c2cc(C)n(-c3ccc4c(c3)OCO4)c2C)s1, the Potency was inconclusive: 29.1 µM [activator, single point].
In the case of CCn1cc(C(=O)N2CCN(c3ccc([N+](=O)[O-])cc3)CC2)c(=O)c2ccc(C)nc21, the Potency is reported as inconclusive: 9.2 µM [falling, partial curve, poor fit].
For Cc1ccc2c(c1)[nH]c1c(=O)n(CCCN3CCOCC3)cnc12, the Potency was “inactive”.
With C[n+]1ccc(/C=C/c2cccs2)cc1 the Potency was active: 8.2 µM.
For CCOc1ccc(N2CC(c3nc4ccccc4n3CCCOc3ccccc3)CC2=O)cc1 (stereo unspecified), the Potency was inconclusive: 23.1 µM [falling, partial curve, poor fit].
In the case of COc1ccc(C2CC(c3cccs3)=NN2c2ccc(C=O)cc2)cc1 (stereo unspecified), the Potency is reported as inconclusive: 13 µM [activator, partial curve].
With COc1ccc(NC(=O)/C(Cl)=C(/Cl)S(=O)(=O)Cc2ccccc2)cn1 the Potency was inconclusive: 23.1 µM [falling, single point].
In the case of Cc1ccc(-n2c(=O)c3cccnc3n2CC(=O)Nc2ccc(Br)cc2)cc1C, the Potency is reported as “inactive”.
With CCn1c(-c2ccc(C)cc2)nn(CC(=O)NCCc2ccccc2)c1=S the Potency was inconclusive: 29.1 µM [falling, partial curve, poor fit].
With CC(Oc1ccc(F)cc1)C(=O)N1CCC(c2nc3ccccc3s2)CC1 (stereo unspecified) the Potency was inconclusive: 18.4 µM [falling, partial curve, poor fit].
In the case of NC1=C(Br)C(=O)c2ncccc2C1=O, the Potency is reported as active: 16.4 µM.
In the case of CCNc1ccc(Br)cc(C(=O)/C=C/c2ccccc2Cl)c1=O, the Potency is reported as inconclusive: 20.6 µM [falling, single point].
With COc1ccc(/C=C/C(=O)Nc2ccc3nc4c(c(Nc5ccccc5OC)c3c2)CCCC4)cc1 the Potency was inconclusive: 18.4 µM [falling, single point].
For CC1=NNC(=O)/C1=C\c1cn(-c2ccccc2)nc1-c1ccc(F)cc1, the Potency was inconclusive: 29.1 µM [falling, single point].
For CN(C)c1ccc(C(=O)c2ccc(N(C)C)c3ccccc23)cc1, the Potency was inconclusive: 6.51 µM [falling, full curve].
For Cc1[nH]nc(C(F)(F)F)c1N=NN1CCOCC1, the Potency was inconclusive: 18.4 µM [falling, single point].
For CCOCCc1nn2c(=O)cc(COC(=O)CNC(=O)c3cccc(C)c3)nc2s1, the Potency was “inactive”.
For O=C(C[C@H]1C[C@H](C(=O)N2CCOCC2)[C@@]2(CCC3CCCC3)c3[nH]c4ccc(Cl)cc4c3CCN2C1=O)NCCc1ccccn1, the Potency was inconclusive: 23.1 µM [falling, partial curve, poor fit].
With COc1cccc(CCNC(=O)c2cccc(NC(=O)C3=C(C)OCCS3)c2)c1 the Potency was inconclusive: 23.1 µM [falling, single point].
For COc1ccc2cc(C#N)c(SCC(=O)N3CC(=O)Nc4ccccc43)nc2c1, the Potency was inconclusive: 29.1 µM [activator, partial curve, poor fit].
